What all share (test): log2 fold change, soluble protein after heating vs DMSO (PISA); higher = thermal stabilisation; K562 lysate, 10 uM; active = over 0.2 and 3.5 SD of the protein, either way, in both replicates (recomputed)
Compound in assay [1]: C1=CC=C(C=C1)[C@H](COC2=CC3=C(C=C2)NC(=O)N3)NC(=O)C4=CC=CN(C4=O)CC5=CC(=C(C=C5)F)F
The gist of the method:
(§1)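 To prepare the extract, K562 pellets were dounce-homogenised in PBS pH 7.4 with 1 mM MgCl2, giving crude material at 1 mg/mL protein. This was treated with 10 μM compound for 30 min, then heated in aliquots for 3 min over 48°C-58°C before pooling and addition of NP-40 to 0.5% at 4°C. Centrifugation at 21,000xg for 90 min left soluble protein in the supernatant, which TMTpro 16plex LC-MS/MS quantified with equalised channel sums. Results are log-two fold changes in thermal stability compared with solvent controls, from duplicates.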

Amino acid sequences for entries named in this document (tags omitted). A change or cut given only in a name is not applied to a line headed by its entry.
UniProt P24666: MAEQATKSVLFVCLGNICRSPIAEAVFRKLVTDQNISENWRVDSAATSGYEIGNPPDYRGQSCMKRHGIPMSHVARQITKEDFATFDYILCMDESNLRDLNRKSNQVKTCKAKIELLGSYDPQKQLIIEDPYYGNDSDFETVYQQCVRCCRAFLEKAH
UniProt Q7Z6V5: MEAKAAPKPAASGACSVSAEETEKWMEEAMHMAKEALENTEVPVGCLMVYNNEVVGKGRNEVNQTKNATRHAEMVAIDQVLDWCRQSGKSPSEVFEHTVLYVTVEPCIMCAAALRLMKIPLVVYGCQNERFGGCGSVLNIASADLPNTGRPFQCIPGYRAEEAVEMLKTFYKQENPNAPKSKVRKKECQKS
UniProt Q02040: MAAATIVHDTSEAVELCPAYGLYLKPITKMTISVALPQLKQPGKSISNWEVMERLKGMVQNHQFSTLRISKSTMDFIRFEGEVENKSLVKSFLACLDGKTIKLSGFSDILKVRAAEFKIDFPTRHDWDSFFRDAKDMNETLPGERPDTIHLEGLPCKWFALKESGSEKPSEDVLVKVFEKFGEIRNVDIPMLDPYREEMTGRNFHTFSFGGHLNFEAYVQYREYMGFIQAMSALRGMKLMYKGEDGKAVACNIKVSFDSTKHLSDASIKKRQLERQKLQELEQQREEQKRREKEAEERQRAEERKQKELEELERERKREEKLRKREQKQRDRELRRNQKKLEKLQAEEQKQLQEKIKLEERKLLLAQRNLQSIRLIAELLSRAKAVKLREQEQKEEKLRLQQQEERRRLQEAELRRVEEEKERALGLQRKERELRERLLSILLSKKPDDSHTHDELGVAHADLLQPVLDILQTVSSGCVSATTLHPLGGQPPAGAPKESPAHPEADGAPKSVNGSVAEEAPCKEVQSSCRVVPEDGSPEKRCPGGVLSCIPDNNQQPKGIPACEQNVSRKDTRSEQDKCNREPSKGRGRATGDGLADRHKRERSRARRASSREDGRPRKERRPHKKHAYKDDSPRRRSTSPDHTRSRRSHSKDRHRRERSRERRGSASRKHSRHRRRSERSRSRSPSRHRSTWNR
UniProt Q96M93: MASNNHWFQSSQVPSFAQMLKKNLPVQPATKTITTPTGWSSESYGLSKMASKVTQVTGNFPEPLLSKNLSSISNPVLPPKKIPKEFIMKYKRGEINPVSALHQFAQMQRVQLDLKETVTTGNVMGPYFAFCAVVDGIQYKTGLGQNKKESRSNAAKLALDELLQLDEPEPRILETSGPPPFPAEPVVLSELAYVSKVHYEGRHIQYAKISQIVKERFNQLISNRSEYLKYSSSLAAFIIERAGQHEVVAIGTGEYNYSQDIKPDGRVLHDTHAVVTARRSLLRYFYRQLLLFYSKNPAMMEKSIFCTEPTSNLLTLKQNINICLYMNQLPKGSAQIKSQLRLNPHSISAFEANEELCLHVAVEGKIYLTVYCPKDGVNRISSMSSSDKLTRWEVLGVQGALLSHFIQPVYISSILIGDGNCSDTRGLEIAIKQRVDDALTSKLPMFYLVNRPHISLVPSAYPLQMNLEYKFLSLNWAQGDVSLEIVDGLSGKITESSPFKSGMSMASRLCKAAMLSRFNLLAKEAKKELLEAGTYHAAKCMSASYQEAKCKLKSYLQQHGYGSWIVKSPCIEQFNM
UniProt P35612: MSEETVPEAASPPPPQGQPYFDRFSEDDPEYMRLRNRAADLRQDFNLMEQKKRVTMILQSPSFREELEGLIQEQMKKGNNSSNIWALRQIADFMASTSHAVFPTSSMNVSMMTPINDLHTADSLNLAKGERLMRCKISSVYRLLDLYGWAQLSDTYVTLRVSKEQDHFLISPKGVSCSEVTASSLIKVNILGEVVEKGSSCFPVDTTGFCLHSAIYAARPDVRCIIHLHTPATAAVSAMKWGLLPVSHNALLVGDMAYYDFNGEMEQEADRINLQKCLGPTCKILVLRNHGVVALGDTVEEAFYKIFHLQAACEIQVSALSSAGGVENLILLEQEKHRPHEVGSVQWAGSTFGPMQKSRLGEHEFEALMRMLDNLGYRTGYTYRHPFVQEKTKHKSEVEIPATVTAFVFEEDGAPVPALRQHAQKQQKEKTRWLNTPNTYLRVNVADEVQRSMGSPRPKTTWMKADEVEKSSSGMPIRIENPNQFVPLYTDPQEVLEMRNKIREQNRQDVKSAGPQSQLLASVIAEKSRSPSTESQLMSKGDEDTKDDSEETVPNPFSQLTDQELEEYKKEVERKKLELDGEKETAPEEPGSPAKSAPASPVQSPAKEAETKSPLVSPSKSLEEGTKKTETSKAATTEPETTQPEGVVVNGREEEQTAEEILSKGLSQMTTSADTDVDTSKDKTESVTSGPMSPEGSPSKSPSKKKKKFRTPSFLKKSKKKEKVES
UniProt Q53H80, whole entry, looked up: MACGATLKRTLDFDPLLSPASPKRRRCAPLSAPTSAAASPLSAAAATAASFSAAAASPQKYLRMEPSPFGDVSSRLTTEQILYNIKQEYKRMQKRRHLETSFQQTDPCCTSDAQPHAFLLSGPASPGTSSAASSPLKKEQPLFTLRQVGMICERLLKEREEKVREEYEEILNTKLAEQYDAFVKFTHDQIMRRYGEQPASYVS
UniProt O60266: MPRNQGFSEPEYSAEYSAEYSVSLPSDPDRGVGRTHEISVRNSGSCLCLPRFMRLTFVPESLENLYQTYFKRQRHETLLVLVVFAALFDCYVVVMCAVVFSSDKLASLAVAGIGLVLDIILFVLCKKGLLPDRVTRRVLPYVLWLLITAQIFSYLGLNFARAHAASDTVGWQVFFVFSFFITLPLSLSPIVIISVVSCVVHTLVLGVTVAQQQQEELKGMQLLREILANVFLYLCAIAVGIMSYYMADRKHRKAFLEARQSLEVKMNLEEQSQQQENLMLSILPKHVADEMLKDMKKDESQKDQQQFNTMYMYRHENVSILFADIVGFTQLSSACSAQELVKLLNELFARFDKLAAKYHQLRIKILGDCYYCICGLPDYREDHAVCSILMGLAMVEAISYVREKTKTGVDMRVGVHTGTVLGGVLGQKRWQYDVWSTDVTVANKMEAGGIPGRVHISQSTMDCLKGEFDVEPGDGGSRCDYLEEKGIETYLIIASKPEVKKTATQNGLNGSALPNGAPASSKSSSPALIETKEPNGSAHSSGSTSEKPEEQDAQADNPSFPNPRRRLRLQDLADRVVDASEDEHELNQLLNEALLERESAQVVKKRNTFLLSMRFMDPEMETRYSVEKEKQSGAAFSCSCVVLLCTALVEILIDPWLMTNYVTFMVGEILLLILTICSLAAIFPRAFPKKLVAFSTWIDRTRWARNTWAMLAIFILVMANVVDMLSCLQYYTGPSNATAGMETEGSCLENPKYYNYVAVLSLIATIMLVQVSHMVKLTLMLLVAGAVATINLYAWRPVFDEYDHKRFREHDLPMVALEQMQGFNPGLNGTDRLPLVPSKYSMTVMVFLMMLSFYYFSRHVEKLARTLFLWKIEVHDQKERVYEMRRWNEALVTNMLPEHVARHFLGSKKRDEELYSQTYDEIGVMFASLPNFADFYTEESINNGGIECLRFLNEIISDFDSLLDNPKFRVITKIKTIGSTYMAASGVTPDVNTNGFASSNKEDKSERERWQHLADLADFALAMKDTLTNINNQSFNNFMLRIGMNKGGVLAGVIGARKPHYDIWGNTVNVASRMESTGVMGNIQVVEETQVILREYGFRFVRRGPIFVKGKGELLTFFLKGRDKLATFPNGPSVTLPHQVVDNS
UniProt Q9ULC5: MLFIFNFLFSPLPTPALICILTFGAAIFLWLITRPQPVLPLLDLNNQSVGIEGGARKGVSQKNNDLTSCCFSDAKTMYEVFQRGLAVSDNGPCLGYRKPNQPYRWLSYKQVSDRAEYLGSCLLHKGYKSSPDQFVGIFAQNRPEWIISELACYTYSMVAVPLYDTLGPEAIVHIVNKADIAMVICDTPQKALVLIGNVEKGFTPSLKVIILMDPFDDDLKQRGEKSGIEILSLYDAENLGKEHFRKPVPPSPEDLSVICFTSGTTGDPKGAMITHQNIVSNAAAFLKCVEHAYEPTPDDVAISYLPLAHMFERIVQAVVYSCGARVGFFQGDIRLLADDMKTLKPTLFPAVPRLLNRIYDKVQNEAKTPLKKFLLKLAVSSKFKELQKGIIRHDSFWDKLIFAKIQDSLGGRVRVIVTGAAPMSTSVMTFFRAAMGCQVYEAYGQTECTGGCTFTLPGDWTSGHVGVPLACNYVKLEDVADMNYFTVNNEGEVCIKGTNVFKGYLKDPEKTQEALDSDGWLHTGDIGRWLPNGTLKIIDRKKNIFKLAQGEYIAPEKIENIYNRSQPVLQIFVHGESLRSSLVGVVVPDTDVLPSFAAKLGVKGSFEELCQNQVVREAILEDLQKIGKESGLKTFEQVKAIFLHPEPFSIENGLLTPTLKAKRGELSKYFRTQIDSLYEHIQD
UniProt Q9BQI0: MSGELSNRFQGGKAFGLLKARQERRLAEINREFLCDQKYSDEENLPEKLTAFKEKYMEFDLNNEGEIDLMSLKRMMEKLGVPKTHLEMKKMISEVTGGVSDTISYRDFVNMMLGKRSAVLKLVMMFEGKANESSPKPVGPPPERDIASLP
UniProt Q3MIX3: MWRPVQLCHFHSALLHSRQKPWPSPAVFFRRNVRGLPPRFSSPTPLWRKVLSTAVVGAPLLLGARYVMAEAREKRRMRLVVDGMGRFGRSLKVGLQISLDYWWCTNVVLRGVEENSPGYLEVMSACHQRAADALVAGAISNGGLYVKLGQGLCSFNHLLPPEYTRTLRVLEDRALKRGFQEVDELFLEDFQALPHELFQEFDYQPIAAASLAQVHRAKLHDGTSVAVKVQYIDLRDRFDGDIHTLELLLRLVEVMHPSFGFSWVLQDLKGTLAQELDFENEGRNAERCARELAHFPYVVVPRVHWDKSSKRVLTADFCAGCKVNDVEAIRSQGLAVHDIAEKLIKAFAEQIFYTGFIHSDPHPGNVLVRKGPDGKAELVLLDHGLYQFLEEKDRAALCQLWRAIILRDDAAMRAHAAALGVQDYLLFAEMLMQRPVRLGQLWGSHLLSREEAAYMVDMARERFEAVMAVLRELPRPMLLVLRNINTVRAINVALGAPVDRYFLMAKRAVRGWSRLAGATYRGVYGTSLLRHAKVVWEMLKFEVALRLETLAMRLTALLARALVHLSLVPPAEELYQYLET
UniProt Q6RW13: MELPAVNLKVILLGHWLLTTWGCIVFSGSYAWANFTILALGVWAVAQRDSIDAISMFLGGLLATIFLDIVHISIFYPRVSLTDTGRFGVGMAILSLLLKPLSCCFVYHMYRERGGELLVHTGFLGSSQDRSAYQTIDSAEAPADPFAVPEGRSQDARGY
UniProt Q9NUB1: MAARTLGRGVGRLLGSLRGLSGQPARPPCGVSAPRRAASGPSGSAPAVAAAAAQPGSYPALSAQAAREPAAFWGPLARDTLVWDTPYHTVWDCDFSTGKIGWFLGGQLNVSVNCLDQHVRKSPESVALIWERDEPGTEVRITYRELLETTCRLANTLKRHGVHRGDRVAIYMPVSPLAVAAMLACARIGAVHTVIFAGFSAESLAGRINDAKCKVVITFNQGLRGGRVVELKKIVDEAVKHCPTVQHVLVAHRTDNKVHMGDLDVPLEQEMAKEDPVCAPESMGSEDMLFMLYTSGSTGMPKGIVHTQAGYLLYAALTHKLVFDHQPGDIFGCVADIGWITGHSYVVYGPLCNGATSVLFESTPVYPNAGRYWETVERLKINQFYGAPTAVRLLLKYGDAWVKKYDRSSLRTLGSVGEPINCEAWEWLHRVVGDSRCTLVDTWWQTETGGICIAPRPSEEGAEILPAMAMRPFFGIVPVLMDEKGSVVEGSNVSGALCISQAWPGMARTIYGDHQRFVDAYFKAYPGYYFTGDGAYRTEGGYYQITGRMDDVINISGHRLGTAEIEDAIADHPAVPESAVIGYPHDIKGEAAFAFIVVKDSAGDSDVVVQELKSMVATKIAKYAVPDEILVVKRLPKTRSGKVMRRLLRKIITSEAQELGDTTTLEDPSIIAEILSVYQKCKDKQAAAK
UniProt Q9H981, whole entry, looked up: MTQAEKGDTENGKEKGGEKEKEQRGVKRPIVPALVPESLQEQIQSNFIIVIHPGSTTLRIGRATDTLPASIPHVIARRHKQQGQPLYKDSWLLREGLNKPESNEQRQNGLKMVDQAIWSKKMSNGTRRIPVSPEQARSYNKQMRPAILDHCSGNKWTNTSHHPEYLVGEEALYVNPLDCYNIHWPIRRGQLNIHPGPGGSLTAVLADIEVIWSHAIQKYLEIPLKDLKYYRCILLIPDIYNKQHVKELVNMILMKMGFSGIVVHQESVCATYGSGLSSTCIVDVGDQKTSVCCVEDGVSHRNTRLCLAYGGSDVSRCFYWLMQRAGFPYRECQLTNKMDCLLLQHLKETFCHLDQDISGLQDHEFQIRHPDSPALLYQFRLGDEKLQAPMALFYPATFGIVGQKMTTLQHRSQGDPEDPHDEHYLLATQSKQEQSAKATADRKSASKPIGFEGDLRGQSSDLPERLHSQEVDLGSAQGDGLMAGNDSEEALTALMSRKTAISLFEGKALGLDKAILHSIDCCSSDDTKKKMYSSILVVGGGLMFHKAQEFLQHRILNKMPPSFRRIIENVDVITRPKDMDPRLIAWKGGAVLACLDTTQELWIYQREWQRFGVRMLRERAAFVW

Compound in assay [2]: CC1=C(SC2=C1C(=N[C@H](C3=NN=C(N32)C)CC(=O)N)C4=CC=C(C=C4)Cl)C
The essentials: as §1

Compound in assay [3]: Cc1sc2c(c1C)C(c1ccc(Cl)cc1)=N[C@@H](CC(=O)OC(C)(C)C)c1nnc(C)n1-2
The gist of the method: as §1

Compound in assay [4]: CC1=C2C(=CC=C1)N=C(N(C2=O)C3=CC=CC=C3C)CN4C=NC5=C(N=CN=C54)N
The gist of the method: as §1

Compound in assay [5]: c1ccc([C@@H]2C[C@H]2NC2CCNCC2)cc1
The essentials:
as §1

The values below come from the supplement of paper PMC10849652.

This is one part of the list.

AEBP2 (UniProt Q6ZN18): the log2 fold change is inactive: 0.097 in assay [1], inactive: -0.085 in assay [2] and inactive: -0.032 in assay [3].
Take ACP1 isoform 2 (UniProt P24666): the log2 fold change is inactive: 0.022 in assay [1]; inactive: 0.013 in assay [2]; inactive: 0.066 in assay [4]; inactive: 0.006 in assay [3]; inactive: -0.005 in assay [5].
Regarding ACOX3 (UniProt O15254), the log2 fold change is inactive: 0.209 in assay [1], inactive: 0.224 in assay [2] and inactive: 0.087 in assay [3].
For ACTN4 (UniProt K7EJH8), the log2 fold change in assay [1] was inactive: -0.018; in assay [2] it was inactive: 0.013; in assay [3], inactive: 0.001; in assay [5], inactive: -0.042.
Turning to AHCY (UniProt P23526), the log2 fold change is inactive: 0.004 in assay [1]; inactive: 0.021 in assay [2]; inactive: 0.002 in assay [4]; inactive: 0.022 in assay [3]; inactive: 0 in assay [5].
As to ADPRM (UniProt Q3LIE5), the log2 fold change is inactive: -0.091 in assay [1], inactive: -0.038 in assay [2], inactive: 0.087 in assay [4] and inactive: -0.031 in assay [5].
In the case of AKAP1 (UniProt Q92667), the log2 fold change in assay [1] was inactive: -0.004; in assay [2] it was inactive: 0.044; in assay [4], inactive: 0.009; in assay [3], inactive: -0.03; in assay [5], inactive: -0.001.
For AKR1C2 (UniProt P52895), in that order: inactive: -0.012, inactive: 0.047, inactive: 0.047, inactive: -0.184 and inactive: -0.107.
For ADAT2 (UniProt Q7Z6V5), in that order: inactive: 0.007, inactive: 0.064, inactive: -0.009, inactive: 0.004 and inactive: -0.025.
On to AGGF1 (UniProt Q8N302), for which the log2 fold change was inactive: 0.042 in assay [1], inactive: 0.049 in assay [2], inactive: 0.024 in assay [4] and inactive: -0.149 in assay [5].
As for AKAP10 (UniProt O43572), the log2 fold change is inactive: -0.324 in assay [1], inactive: 0.117 in assay [2] and inactive: -0.026 in assay [3].
As for ACVR1 (UniProt Q04771), the log2 fold change was inactive: -0.052 in assay [1], inactive: -0.055 in assay [2], inactive: -0.102 in assay [3] and inactive: -0.126 in assay [5].
With AGPAT4 (UniProt Q9NRZ5), the log2 fold change in assay [1] is inactive: 0.097; in assay [2], inactive: -0.119; in assay [5], inactive: 0.029.
For the target ADCY7 (UniProt P51828), in assay [3], the log2 fold change is inactive: 0.106.
In the case of AKAP17A (UniProt Q02040), in assay [3], the log2 fold change was inactive: -0.024.
On to ADAD1 (UniProt Q96M93), for which the log2 fold change in assay [4] is inactive: 0.015; in assay [3], inactive: -0.027.
With ACSL6 isoform 1 (UniProt Q9UKU0), the log2 fold change in assay [1] is inactive: 0.109; in assay [2] it was inactive: -0.051; in assay [5], inactive: -0.038.
On to AGO2 (UniProt E5RJY2), for which the log2 fold change in assay [5] is inactive: -0.101.
Turning to ADD2 isoform 9 (UniProt P35612), the figures for the log2 fold change in assay [4], in assay [3] and in assay [5] were inactive: -0.609, inactive: 0.147 and inactive: 0.119, respectively.
In the same order, the values of AKIRIN2 (UniProt Q53H80) are inactive: -0.095, inactive: -0.142 and inactive: 0.103.
As to ADCY3 (UniProt O60266), the log2 fold change in assay [3] was inactive: -0.001.
Still for that read-out and setting: as for AFG1L (UniProt Q8WV93), the figure is inactive: -0.013.
Regarding ACSL5 isoform 3 (UniProt Q9ULC5), the log2 fold change in assay [1] is inactive: -0.084; in assay [2] it was inactive: -0.005; in assay [3], inactive: 0.009; in assay [5], inactive: 0.067.
As to AGFG2 (UniProt O95081), the log2 fold change was inactive: -0.022 in assay [4] and inactive: 0.109 in assay [3].
For AFDN (UniProt A8MQ02), the log2 fold change in assay [4] was inactive: -0.113.
For the target AKR1C1 (UniProt Q04828), the values for the log2 fold change in assay [4], in assay [3] and in assay [5] were inactive: 0.015, inactive: -0.104 and inactive: 0.088, respectively.
Take ACVR2B (UniProt Q13705): the log2 fold change in assay [4] was inactive: 0.246.
For the target AIF1L (UniProt Q9BQI0), the log2 fold change in assay [1] was inactive: 0.072; in assay [2], inactive: -0.031; in assay [3], inactive: 0.049; in assay [5] it was inactive: -0.022.
Consider AFM (UniProt P43652), for which the log2 fold change in assay [4] was inactive: -0.072; in assay [5] it was inactive: 0.08.
With ADCK5 (UniProt Q3MIX3), the log2 fold change in assay [3] is inactive: 0.212.
With AGPAT2 (UniProt O15120), the log2 fold change is inactive: -0.11 in assay [4] and inactive: 0.034 in assay [5].
As for AGA (UniProt P20933), the log2 fold change in assay [4] was inactive: 0.043.
In the case of ACTN4 (UniProt H7C144), the log2 fold change in assay [3] was inactive: 0.073.
On to ADCK1 (UniProt Q86TW2), for which the log2 fold change is inactive: 0.06 in assay [4] and inactive: -0.165 in assay [5].
As to AGTRAP isoform 2 (UniProt Q6RW13), the log2 fold change in assay [1] is inactive: -0.124; in assay [2], inactive: -0.086; in assay [5], inactive: -0.013.
Take ACSS1 (UniProt Q9NUB1): the log2 fold change in assay [1] was inactive: 0.009; in assay [2], inactive: -0.064; in assay [3], inactive: 0.089; in assay [5], inactive: -0.037.
Turning to ACTR8 (UniProt Q9H981), in assay [3], the log2 fold change is inactive: 0.092.
